This is one part of the list.
Columns and labels:
Experiment in all cases: log2 fold change, soluble protein after heating vs DMSO (PISA); higher = thermal stabilisation; K562 cells, 10 uM, 30 min; active = over 0.2 and 3.5 SD of the protein, either way, in both replicates (recomputed)
[1] = compound: CC1=C(C=C(C=C1)NC(=O)C2=CC(=CC=C2)C(C)(C)C#N)NC3=CC4=C(C=C3)N=CN(C4=O)C
How it was run: (§1)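 Values are thermal stability changes relative to control samples and are taken from duplicates. They are stated as log2 fold changes. Before quantification by TMTpro 16plex LC-MS/MS with equalised channel sums, K562 cells at 2×10^6 cells/mL were treated with 10 μM compound for 30 min, heated in aliquots for 3 min across 48°C-58°C, pooled, extracted in PBS with 0.5% NP-40 at 4°C, and centrifuged at 21,000xg for 90 min to give the soluble supernatant.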

The chains behind the UniProt entries cited, without tags or fusion partners. Where a name states a change or a piece, a line headed by the entry shows the natural chain unless it says otherwise.
UniProt Q53S33: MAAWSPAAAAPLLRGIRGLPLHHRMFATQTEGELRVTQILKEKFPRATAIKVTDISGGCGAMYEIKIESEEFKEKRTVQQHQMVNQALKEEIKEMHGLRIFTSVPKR
UniProt P51572: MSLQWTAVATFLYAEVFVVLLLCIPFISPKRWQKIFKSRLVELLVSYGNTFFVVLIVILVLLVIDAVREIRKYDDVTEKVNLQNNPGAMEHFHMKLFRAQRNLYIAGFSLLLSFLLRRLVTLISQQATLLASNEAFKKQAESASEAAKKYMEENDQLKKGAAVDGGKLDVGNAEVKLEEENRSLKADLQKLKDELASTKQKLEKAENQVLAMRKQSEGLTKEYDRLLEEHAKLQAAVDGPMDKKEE
UniProt Q9Y276: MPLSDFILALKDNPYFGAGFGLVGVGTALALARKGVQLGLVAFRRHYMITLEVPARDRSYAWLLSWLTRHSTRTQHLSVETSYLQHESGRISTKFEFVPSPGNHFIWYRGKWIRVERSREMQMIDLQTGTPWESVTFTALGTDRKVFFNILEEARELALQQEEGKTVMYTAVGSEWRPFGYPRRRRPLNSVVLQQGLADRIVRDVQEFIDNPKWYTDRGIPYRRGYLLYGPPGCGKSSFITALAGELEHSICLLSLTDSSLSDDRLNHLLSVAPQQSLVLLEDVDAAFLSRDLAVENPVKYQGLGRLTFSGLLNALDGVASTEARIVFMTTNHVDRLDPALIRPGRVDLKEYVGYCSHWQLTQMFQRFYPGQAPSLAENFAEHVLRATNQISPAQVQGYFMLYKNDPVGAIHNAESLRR
UniProt Q9NW68: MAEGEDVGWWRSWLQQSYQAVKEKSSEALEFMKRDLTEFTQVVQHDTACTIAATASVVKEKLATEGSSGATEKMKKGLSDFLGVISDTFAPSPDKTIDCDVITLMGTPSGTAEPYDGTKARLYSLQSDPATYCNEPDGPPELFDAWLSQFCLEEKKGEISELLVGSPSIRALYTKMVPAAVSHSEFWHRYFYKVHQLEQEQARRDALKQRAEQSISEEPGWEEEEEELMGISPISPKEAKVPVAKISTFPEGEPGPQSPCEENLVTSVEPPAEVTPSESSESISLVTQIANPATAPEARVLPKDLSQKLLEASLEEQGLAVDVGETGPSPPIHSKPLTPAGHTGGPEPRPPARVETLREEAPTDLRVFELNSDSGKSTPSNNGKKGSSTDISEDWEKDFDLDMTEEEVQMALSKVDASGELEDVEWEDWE
UniProt O00512: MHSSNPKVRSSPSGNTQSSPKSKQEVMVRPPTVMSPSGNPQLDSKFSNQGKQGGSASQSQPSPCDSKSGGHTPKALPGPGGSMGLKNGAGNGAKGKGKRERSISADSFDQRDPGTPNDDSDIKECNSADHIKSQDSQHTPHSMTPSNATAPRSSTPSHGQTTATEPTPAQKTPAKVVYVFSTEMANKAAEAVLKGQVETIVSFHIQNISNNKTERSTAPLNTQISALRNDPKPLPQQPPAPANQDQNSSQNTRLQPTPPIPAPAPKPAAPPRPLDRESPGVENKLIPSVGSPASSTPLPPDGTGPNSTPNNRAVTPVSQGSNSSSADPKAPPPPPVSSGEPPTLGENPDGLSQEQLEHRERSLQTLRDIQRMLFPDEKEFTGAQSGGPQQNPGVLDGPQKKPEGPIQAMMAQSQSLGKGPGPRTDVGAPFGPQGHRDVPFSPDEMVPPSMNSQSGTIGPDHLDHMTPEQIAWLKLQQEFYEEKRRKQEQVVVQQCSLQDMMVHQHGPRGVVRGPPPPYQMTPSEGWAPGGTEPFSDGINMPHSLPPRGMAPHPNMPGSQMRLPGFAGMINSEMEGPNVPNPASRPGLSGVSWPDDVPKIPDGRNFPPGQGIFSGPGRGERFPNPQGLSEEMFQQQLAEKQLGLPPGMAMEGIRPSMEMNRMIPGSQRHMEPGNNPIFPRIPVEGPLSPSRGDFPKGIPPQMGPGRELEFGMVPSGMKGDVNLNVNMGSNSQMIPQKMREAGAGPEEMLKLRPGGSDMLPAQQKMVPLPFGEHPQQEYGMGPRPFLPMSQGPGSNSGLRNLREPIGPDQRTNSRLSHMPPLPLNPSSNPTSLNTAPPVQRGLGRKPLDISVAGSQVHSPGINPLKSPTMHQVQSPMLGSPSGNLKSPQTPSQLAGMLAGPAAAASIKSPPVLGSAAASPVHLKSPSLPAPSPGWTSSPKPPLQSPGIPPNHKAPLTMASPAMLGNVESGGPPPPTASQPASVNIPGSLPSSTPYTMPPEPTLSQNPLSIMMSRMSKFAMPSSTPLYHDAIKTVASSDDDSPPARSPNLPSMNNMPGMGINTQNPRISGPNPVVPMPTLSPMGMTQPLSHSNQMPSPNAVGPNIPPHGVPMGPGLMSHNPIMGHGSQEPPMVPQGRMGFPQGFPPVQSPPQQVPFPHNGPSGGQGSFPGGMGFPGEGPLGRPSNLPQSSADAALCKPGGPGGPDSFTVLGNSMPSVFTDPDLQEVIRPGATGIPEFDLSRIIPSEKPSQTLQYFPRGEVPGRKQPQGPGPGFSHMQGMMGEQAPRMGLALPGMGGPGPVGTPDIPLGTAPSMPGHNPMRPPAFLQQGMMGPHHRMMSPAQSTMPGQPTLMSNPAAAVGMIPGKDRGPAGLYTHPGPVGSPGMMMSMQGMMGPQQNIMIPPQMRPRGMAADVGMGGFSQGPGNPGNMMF
UniProt Q07812, whole entry, looked up: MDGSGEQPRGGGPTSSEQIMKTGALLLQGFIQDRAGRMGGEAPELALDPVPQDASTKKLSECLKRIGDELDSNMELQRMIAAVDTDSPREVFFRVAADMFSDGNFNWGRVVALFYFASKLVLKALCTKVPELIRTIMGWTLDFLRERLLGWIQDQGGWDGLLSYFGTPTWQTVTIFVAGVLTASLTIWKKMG
UniProt Q9UQB8: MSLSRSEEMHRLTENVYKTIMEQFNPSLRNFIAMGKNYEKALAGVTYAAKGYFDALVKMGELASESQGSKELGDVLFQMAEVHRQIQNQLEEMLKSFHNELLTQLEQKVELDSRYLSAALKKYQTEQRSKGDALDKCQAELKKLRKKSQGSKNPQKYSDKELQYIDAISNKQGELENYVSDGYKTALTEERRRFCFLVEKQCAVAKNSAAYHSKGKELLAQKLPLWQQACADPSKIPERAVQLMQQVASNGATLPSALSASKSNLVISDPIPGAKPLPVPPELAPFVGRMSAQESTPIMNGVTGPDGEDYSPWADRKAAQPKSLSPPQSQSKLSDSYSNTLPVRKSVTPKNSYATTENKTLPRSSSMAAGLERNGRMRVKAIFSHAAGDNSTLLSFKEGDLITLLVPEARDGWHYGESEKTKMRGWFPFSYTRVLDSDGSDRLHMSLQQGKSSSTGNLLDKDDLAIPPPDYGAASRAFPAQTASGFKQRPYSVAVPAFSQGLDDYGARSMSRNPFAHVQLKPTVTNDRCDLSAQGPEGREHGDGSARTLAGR
UniProt O15155: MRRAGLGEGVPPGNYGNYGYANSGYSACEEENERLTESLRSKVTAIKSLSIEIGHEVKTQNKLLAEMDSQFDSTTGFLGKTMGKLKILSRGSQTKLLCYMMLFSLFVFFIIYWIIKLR
UniProt Q9UL15: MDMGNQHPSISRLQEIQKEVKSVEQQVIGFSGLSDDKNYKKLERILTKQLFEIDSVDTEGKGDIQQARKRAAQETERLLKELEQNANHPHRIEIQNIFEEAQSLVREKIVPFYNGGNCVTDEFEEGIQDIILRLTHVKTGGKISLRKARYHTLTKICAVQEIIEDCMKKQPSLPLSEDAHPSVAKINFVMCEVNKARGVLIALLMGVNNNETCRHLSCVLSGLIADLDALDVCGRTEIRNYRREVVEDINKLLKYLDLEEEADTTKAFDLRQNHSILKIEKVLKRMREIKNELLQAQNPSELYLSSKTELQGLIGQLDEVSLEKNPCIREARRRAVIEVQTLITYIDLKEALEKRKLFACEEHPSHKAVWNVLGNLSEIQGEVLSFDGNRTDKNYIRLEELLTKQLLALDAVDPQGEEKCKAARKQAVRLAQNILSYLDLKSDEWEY
UniProt Q00973: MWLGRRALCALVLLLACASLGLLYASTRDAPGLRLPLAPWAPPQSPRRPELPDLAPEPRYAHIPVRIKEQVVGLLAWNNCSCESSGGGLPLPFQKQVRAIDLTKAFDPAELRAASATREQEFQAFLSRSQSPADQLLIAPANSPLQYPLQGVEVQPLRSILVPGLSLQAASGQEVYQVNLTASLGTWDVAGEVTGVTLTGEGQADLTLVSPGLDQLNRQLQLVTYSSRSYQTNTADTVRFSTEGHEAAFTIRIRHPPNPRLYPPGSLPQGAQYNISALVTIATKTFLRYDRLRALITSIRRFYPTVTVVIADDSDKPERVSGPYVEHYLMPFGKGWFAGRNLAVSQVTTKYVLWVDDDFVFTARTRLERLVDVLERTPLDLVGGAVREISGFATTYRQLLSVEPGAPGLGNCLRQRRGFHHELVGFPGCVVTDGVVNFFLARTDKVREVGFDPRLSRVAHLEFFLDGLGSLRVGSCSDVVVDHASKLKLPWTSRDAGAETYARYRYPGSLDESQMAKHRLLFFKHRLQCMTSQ
UniProt Q6PJG6: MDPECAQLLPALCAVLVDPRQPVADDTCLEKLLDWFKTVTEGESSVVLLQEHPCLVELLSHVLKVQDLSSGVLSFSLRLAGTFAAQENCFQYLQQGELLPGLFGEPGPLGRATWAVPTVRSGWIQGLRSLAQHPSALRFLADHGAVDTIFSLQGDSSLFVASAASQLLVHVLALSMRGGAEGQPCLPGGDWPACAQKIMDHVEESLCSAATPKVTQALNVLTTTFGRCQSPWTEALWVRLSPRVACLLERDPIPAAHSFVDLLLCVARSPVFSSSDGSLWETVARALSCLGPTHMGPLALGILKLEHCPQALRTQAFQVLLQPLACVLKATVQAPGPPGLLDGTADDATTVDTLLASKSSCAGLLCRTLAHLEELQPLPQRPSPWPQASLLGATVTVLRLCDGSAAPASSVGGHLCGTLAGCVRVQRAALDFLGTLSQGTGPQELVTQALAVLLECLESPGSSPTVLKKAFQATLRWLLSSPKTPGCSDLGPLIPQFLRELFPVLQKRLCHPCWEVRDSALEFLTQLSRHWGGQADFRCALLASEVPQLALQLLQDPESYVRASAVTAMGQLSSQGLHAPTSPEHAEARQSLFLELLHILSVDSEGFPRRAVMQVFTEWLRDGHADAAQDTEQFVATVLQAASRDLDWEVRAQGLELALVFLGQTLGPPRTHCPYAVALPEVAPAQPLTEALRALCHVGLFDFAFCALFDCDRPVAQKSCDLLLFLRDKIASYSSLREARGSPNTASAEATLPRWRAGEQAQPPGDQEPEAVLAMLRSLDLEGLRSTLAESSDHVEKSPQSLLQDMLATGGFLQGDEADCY
UniProt Q9UHR4: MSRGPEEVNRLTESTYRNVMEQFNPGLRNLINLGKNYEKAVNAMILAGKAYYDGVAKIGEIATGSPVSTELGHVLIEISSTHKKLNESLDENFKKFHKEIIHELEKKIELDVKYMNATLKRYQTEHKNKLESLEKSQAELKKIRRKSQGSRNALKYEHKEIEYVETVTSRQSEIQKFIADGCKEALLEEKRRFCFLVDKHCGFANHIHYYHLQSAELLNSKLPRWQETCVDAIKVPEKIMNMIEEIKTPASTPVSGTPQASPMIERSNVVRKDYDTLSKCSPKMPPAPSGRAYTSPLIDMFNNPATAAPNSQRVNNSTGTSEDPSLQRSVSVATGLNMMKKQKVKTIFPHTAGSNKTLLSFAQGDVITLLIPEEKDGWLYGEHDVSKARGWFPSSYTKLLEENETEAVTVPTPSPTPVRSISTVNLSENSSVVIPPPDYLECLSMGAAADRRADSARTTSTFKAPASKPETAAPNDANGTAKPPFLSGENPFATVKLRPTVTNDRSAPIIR
UniProt O95429: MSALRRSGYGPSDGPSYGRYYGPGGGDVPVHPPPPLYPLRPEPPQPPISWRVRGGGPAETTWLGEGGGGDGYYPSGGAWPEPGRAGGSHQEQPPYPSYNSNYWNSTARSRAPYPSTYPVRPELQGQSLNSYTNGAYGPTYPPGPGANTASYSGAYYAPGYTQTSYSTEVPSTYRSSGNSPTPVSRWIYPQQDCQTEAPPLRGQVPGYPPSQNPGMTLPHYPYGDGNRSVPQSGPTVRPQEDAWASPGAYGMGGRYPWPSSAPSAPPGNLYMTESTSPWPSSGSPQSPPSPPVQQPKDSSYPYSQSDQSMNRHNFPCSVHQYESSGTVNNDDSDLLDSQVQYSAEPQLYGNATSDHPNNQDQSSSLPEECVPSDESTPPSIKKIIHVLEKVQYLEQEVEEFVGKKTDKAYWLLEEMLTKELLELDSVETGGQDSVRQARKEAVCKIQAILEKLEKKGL

[2] = compound: CC1=C(C=C(C=C1)NC(=O)C2=CC(=CC=C2)N(C)C)NC(=O)C3=CC=C(C=C3)O
How it was run: as §1

[3] = compound: CC1=CC=C(C=C1)SC2=C3C=C(SC3=CN=C2)C(=O)N
How it was run: as §1

[4] = compound: CC1=NC(=CC=C1)C2=C(N=C(N2)C(C)(C)C)C3=CC4=NC=CN=C4C=C3
How it was run: as §1

Nexturastat A = compound: CCCCN(Cc1ccc(C(=O)NO)cc1)C(=O)Nc1ccccc1 [Nexturastat A]
How it was run: as §1

vemurafenib = compound: CCCS(=O)(=O)Nc1ccc(F)c(C(=O)c2c[nH]c3ncc(-c4ccc(Cl)cc4)cc23)c1F [vemurafenib]
How it was run: as §1

[5] = compound: CCCS(=O)(=O)Nc1ccc(F)c(C(=O)c2c[nH]c3ncc(Cl)cc23)c1F
How it was run: as §1

[6] = compound: CCCc1cc(C)[nH]c(=O)c1CNC(=O)c1cc(-c2ccnc(N3CCN(C)CC3)c2)cc2c1cnn2C(C)C
How it was run: as §1

givinostat = compound: CCN(CC)Cc1ccc2cc(COC(=O)Nc3ccc(C(=O)NO)cc3)ccc2c1 [givinostat]
How it was run: as §1

barasertib = compound: CCN(CCCOc1ccc2c(Nc3cc(CC(=O)Nc4cccc(F)c4)[nH]n3)ncnc2c1)CCOP(=O)(O)O [barasertib]
How it was run: as §1

Measured: log2 fold change

BOLA3 (UniProt Q53S33)
inactive: [1] -0.006 | [2] -0.001 | [3] 0.031 | [4] 0.012 | Nexturastat A -0.031 | vemurafenib -0.003 | [5] -0.009 | [6] -0.025 | givinostat -0.009 | barasertib 0.005

BCAP31 isoform 2 (UniProt P51572)
inactive: [1] 0.018 | [2] 0.017 | [3] -0.064 | [4] -0.004 | Nexturastat A -0.08 | vemurafenib -0.014 | [5] -0.079 | [6] 0.061 | givinostat -0.019 | barasertib 0

BCS1L (UniProt Q9Y276)
inactive: [1] -0.004 | [2] -0.03 | [3] 0.011 | [4] -0.014 | Nexturastat A -0.043 | vemurafenib -0.026 | [5] -0.007 | [6] 0.016 | givinostat 0.031 | barasertib 0.027

BIRC6 (UniProt Q9NR09)
inactive: [1] 0.024 | [2] -0.015 | [3] -0.05 | [4] 0.011 | Nexturastat A 0.081 | vemurafenib 0.019 | [5] 0.028 | [6] 0.005 | givinostat 0.007 | barasertib -0.01

Two records drawn at random from those above, as already listed:
BIRC6 (UniProt Q9NR09)
inactive: [1] 0.024 | [2] -0.015 | [3] -0.05 | [4] 0.011 | Nexturastat A 0.081 | vemurafenib 0.019 | [5] 0.028 | [6] 0.005 | givinostat 0.007 | barasertib -0.01

BCS1L (UniProt Q9Y276)
inactive: [1] -0.004 | [2] -0.03 | [3] 0.011 | [4] -0.014 | Nexturastat A -0.043 | vemurafenib -0.026 | [5] -0.007 | [6] 0.016 | givinostat 0.031 | barasertib 0.027

(further entries)

BSDC1 (UniProt Q9NW68)
inactive: [1] -0.032 | [2] 0.005 | [3] 0.031 | [4] 0.045 | Nexturastat A -0.006 | vemurafenib 0.023 | [5] 0.02 | [6] -0.028 | givinostat -0.018 | barasertib -0.013

BCL9 (UniProt O00512)
inactive: [1] 0.229 | [2] -0.041 | [3] 0.005 | [4] 0.065 | Nexturastat A 0.023 | vemurafenib -0.224 | [5] 0.005 | givinostat -0.064

BAX isoform 2 (UniProt Q07812)
inactive: [1] 0.023 | [2] -0.014 | [3] 0.019 | [4] 0.045 | Nexturastat A 0.101 | vemurafenib -0.043 | [5] -0.004 | [6] -0.058 | givinostat -0.017 | barasertib 0.043

BAIAP2 (UniProt Q9UQB8)
inactive: [1] -0.019 | [2] 0.01 | [3] 0.007 | [4] -0.012 | Nexturastat A 0.041 | vemurafenib 0.021 | [5] 0.068 | [6] 0.048 | givinostat 0.029 | barasertib 0.048

BET1 (UniProt O15155)
inactive: [1] 0.03 | [2] -0.027 | [3] 0.017 | [4] -0.008 | Nexturastat A -0.065 | vemurafenib 0.025 | [5] 0.015 | [6] -0.083 | givinostat -0.016 | barasertib -0.017

BAG5 isoform 2 (UniProt Q9UL15)
inactive: [1] -0.047 | [2] 0.038 | [3] 0.083 | [4] 0.035 | Nexturastat A 0.005 | vemurafenib 0.07 | [5] 0.073 | [6] -0.022 | givinostat -0.011 | barasertib 0.057

B4GALNT1 (UniProt Q00973)
inactive: [1] 0.075 | [2] -0.028 | [3] -0.109 | [4] 0.005 | Nexturastat A 0.096 | vemurafenib -0.172 | [5] -0.044 | [6] -0.028 | givinostat -0.123 | barasertib 0.104

BRAT1 (UniProt Q6PJG6)
inactive: [1] 0.007 | [2] 0.007 | [3] 0.013 | [4] 0.028 | Nexturastat A -0.012 | vemurafenib 0.071 | [5] -0.003 | [6] -0.001 | givinostat -0.008 | barasertib 0.008

BAIAP2L1 (UniProt Q9UHR4)
inactive: [1] 0.006 | [2] 0.039 | [3] -0.019 | [4] -0.018 | Nexturastat A -0.022 | vemurafenib -0.029 | [5] -0.019 | [6] -0.01 | givinostat -0.014 | barasertib -0.003

BAG4 (UniProt O95429)
inactive: [1] -0.052 | [2] 0.026 | [3] -0.02 | [4] 0.043 | Nexturastat A 0 | vemurafenib 0.015 | [5] 0.019 | [6] -0.045 | givinostat -0.057 | barasertib -0.006

Reference: the supplement of paper PMC10849652
